# Data reported in PubChem BioAssay AID540256 (National Center for Advancing Translational Sciences (NCATS), 2011).
# In all, about 300,000 compounds went through this assay and about 3,700 (1.2%) were called active. Inconclusive results, whose numbers are uncertain, are shown with a selection of clear calls. The call rests on the fitted dose curve; tested in HEK293 cells. Potencies of inconclusive entries are doubtful fits and often do not repeat.
# Assay: qHTS for Inhibitors of binding or entry into cells for Lassa Virus; further: nearly all actives have a fitted effect of over 50% in size
# Details: Lassa virus pseudotype entry inhibition, cell reporter; activity change, negative = inhibition: at 37.9 µM (top of the series) unless noted
# On the % scale 0 is the no-effect control and ±100 the full control effect; potency means the concentration at half of the fitted maximal effect.
Compound,Potency,"activity change, negative = inhibition"
CCOc1ccc2c(c1)sc(N)[n+]2Cc1cc(C)cc2cccnc12,"inconclusive: 3.16 µM [inhibitor, partial curve, poor fit]",–
COc1ccc(C(C(=O)NC(C)(C)C)N(CCc2ccccc2)C(=O)CCC(=O)Nc2cc(C)on2)cc1 (stereo not drawn),inactive,–
O=C(CCn1nnc2ccccc2c1=O)NCC1CCC(C(=O)O)CC1 (stereo not drawn),inactive,–
COc1ccc(NC(=O)c2nc(-n3nc(C)cc3C)ccc2Cl)cc1Cl,"inconclusive: 0.355 µM [activator, partial curve, poor fit]",–
COc1ccccc1OCC(O)Cn1nc(C)cc1C (stereo not drawn),inactive,–
Cc1ccc(-c2nn(Cc3ccccc3)cc2C=O)cc1,"inconclusive: 5.62 µM [activator, single point]",–
O=C(Nc1cccs1)Nc1ccccc1Cl,inactive,–
Cc1nn(-c2ccccc2)c(N2CCCC2)c1/C=N/NC(=S)Nc1ccccc1F,"inconclusive: 29.1 µM [inhibitor, single point]",–
CCCC(=O)Nc1ccc(Cl)c(NC(=S)NC(=O)c2cc3ccccc3o2)c1,"inconclusive: 11.2 µM [activator, single point]",–
CC(=O)Nc1ccc(N2Cc3ccccc3C2)cc1,"inconclusive: 35.5 µM [activator, partial curve, poor fit]",–
C/C(CC(=O)Nc1ccc(Cl)c(C(F)(F)F)c1)=N\NC(=O)c1ccccc1O,"inconclusive: 35.5 µM [inhibitor, single point]",–
COc1cc2c3c(c1OC)C1(C=CC(=O)C=C1)CC3N(C(C)=O)CC2 (stereo not drawn),"inconclusive: 5.01 µM [inhibitor, single point]",–
COc1ccc(S(=O)(=O)N2CCCOC2CNC(=O)C(=O)NC2CCCC2)cc1 (stereo not drawn),"inconclusive: 0.316 µM [activator, partial curve, poor fit]",–
CCn1c(=O)c(-c2ccccc2)c(O)c2ccccc21,inactive,–
C[N+](C)=C1SCC(C)(/C=N/O)S1 (stereo not drawn),"inconclusive: 7.08 µM [inhibitor, partial curve, poor fit]",–
N=c1c2c(-c3ccccc3)c(-c3ccccc3)n(Cc3ccco3)c2ncn1Cc1ccco1,"inconclusive: 22.4 µM [inhibitor, single point]",–
COc1ccc(C(=O)Nc2cc(S(=O)(=O)N3CCCC3)ccc2Cl)cc1,"inconclusive: 22.4 µM [inhibitor, single point]",–
Cc1ccc(C(CC(=O)Nc2cc(C)cc(C)c2)N2Cc3ccccc3C2=O)cc1 (stereo not drawn),"inconclusive: 11.2 µM [inhibitor, single point]",–
C=CCCCCc1nc2ccccc2c(=O)n1N,inactive,–
COc1cc(C(=O)NCC(=O)NCCN2C(=O)S/C(=C\c3ccccc3Cl)C2=O)cc(OC)c1OC,inactive,–
O=C(COc1ccccc1F)N/N=C1\CCCc2ccccc21,inactive,–
COc1cccc(CNC(=O)C(NS(=O)(=O)c2ccc3nc(C)sc3c2)C(C)C)c1 (stereo not drawn),"inconclusive: 3.98 µM [inhibitor, single point]",–
O=C(NCc1ccccc1)C(c1ccncc1)N(C(=O)c1ccccn1)c1ccccc1 (stereo not drawn),"inconclusive: 3.55 µM [activator, partial curve, poor fit]",–

# Filtered by structure, the entries above with a furan ring, fused or not.
Compound,Potency,"activity change, negative = inhibition"
CCCC(=O)Nc1ccc(Cl)c(NC(=S)NC(=O)c2cc3ccccc3o2)c1,"inconclusive: 11.2 µM [activator, single point]",–
N=c1c2c(-c3ccccc3)c(-c3ccccc3)n(Cc3ccco3)c2ncn1Cc1ccco1,"inconclusive: 22.4 µM [inhibitor, single point]",–

# (cont.)

Compound,Potency,"activity change, negative = inhibition"
Cc1cc(C(=O)OCC(=O)N2CCN(C(=O)c3ccco3)CC2)c(C)n1-c1ccc(F)cc1,"inconclusive: 11.2 µM [inhibitor, partial curve, poor fit]",–
Cc1ccc(NC(=O)C2CCCN(c3nnc(-n4c(C)ccc4C)s3)C2)cc1Cl (stereo not drawn),inactive,–
Cc1ccc(NC(=O)N2CCC(CN3CCC(C)CC3)CC2)cc1F,inactive,–
COc1ccc(-c2cc(C(F)(F)F)nc(SCC(=O)NCCc3ccc(OC)c(OC)c3)n2)cc1,inactive,–
NC(=O)c1c(NC(=O)CSc2nnc(Cc3ccccc3)n2Cc2ccco2)sc2c1CCC2,inactive,–
Cc1cc(NCc2ccco2)n2ncnc2n1,"inconclusive: 0.112 µM [inhibitor, full curve, poor fit]",–
Cc1nnc(NC(=O)CN2C(=O)NC3(CCCC3)C2=O)s1,"inconclusive: 5.62 µM [activator, single point]",–
Cc1ccc(-c2cc(C(F)(F)F)n3nc(C(=O)Nc4c(C)n(C)n(-c5ccccc5)c4=O)cc3n2)cc1,"inconclusive: 1.26 µM [activator, partial curve, poor fit]",–
O=C(CCC(=O)Nc1ccc(F)cc1)N/N=C/c1ccc(O)cc1O,"inconclusive: 3.98 µM [inhibitor, partial curve]",–
COCCNCC(=O)N1c2ccccc2Sc2ccccc21,"inconclusive: 14.1 µM [activator, single point]",–
CCOc1ccc(CCNc2nc3c(c(=O)n(C)c(=O)n3C)n2CC)cc1OCC,"inconclusive: 14.6 µM [inhibitor, single point]",–
CCOc1ccc(OCC)c(S(=O)(=O)NC2CC(C)(C)NC(C)(C)C2)c1,"inconclusive: 11.2 µM [activator, single point]",–
Oc1ccc(/C=N/Nc2nccnc2Cl)c(O)c1,"inconclusive: 10 µM [inhibitor, partial curve, poor fit]",–
CCOC(=O)c1[nH]c(C)c(CCC(=O)Nc2ccc(N(CC)CC)cc2C)c1C,"inconclusive: 7.94 µM [inhibitor, partial curve]",–
O=C(CCN1CCCCCC1)Nc1ccc2c(c1)OCCO2,"inconclusive: 0.224 µM [inhibitor, full curve, poor fit]",–
CCS(=O)(=O)N1CC(=O)N(c2cccc(C)c2C)C(C)(C(=O)NC2CCCCC2)C1 (stereo not drawn),inactive,–
CCOC(=O)c1sc(NC(=O)CSc2ncccn2)nc1C,"inconclusive: 1.78 µM [inhibitor, partial curve, poor fit]",–
CCN(CC)C(=O)Cn1cc(S(=O)(=O)CC(=O)Nc2ccc(F)cc2)c2ccccc21,inactive,–
COc1ccccc1N1CCN(C(=O)c2oc3ccc(Br)cc3c2C)CC1,"inconclusive: 6.51 µM [inhibitor, single point]",–
COC(=O)c1cc2occc2n1Cc1ccc(Cl)cc1,–,inconclusive: 25.7% [activator]
CCCCOc1ccc(C(=O)OCC(=O)N2CCCCCC2)cc1,"inconclusive: 6.31 µM [inhibitor, single point]",–
COc1ccccc1N1CCN(C(=O)c2oc3ccc(F)cc3c2C)CC1,"inconclusive: 7.31 µM [inhibitor, partial curve, poor fit]",–
Cc1ccc(-c2c3c(=O)n(C)c(=O)n(C)c3c3c(C(F)(F)F)nc4ccccc4n23)cc1,inactive,–

# Compounds from the list above that contain a thiophene ring, fused or not:
Compound,Potency,"activity change, negative = inhibition"
O=C(Nc1cccs1)Nc1ccccc1Cl,inactive,–
NC(=O)c1c(NC(=O)CSc2nnc(Cc3ccccc3)n2Cc2ccco2)sc2c1CCC2,inactive,–

# (listing goes on)

Compound,Potency,"activity change, negative = inhibition"
COc1cc(CNC(=O)c2cc3n(n2)CCCN(Cc2ccc(C)cc2)C3=O)cc(OC)c1OC,"inconclusive: 3.55 µM [inhibitor, single point]",–
CCCN(Cc1nnc(-c2ccccc2Cl)o1)C(=O)c1oc2ccccc2c1C,"inconclusive: 1.12 µM [inhibitor, partial curve, poor fit]",–
CCc1sc(C(=O)Nc2ccc3c(c2)OCO3)cc1C,"inconclusive: 25.1 µM [inhibitor, single point]",–
COc1ccc(C(=O)N/N=C(\c2ccccc2)c2ccccn2)cc1,"inconclusive: 12.6 µM [inhibitor, partial curve]",–
COC(=O)Nc1nc2ccc(Oc3ccc(NC(=O)Nc4cc(C(F)(F)F)ccc4F)cc3)cc2s1,"inconclusive: 9.96 µM [activator, partial curve, poor fit]",–
CCN1CCN(c2cc(C)c3cc(NC(=S)NCCN(C)C)ccc3n2)CC1,"inconclusive: 12.6 µM [inhibitor, partial curve, poor fit]",–
Cc1ccc(NC(=O)CN2CCc3cc4c(cc3C2)OCCCO4)cc1,"inconclusive: 35.5 µM [inhibitor, single point]",–
COc1ccc(C(C#N)N2CCCCCC2)cc1OC (stereo not drawn),inactive,–
Cn1c(=O)c2c(ncn2Cc2cccc(Cl)c2)n(C)c1=O,inactive,–
O=C(CSc1nnc(C2CCCCC2)n1Cc1ccccc1)NCc1ccco1,inactive,–
Cc1ccc(NC(=O)c2ccc([N+](=O)[O-])s2)cc1S(=O)(=O)N1CCOCC1,"inconclusive: 7.08 µM [inhibitor, partial curve, poor fit]",–
Cc1noc(NS(=O)(=O)c2ccc(NC(=O)c3ccc(OC(C)C)cc3)cc2)c1C,inactive,–
COC(=O)c1ccccc1NC1CC(=O)N(c2c(C)cccc2C)C1=O (stereo not drawn),inactive,–
O=C(Cc1ccccc1)Nc1ccc(NC(=O)c2cccs2)c(Cl)c1,inactive,–
CCN(CC)c1ccc(/C=C(\C#N)C(=O)NCc2ccccc2)cc1,"inconclusive: 2.82 µM [inhibitor, full curve]",–
CC(C)Cc1nc(N2CCN(C(=O)c3ccccc3)CC2)c(C#N)c2c1CCC2,active: 6.51 µM,–
CC(=O)Nc1ccc(S(=O)(=O)Nc2ccc(S(=O)(=O)N3CCCC3)cc2)cc1,"inconclusive: 16.4 µM [activator, single point]",–
O=C(NNC1=Nc2cccc3cccc1c23)c1ccccc1Br,inactive,–
Cc1ccc2nc(-c3cccnc3)oc2c1,"inconclusive: 6.31 µM [activator, single point]",–
Cc1c(C(=O)N2CCN(Cc3ccccc3)CC2)oc2c1C(=O)CC(C)(C)C2,"inconclusive: 7.08 µM [inhibitor, partial curve, poor fit]",–
CN(c1ccccc1)S(=O)(=O)c1cccc(NC(=O)Cn2cnc3c2c(=O)n(C)c(=O)n3C)c1,"inconclusive: 12.6 µM [inhibitor, partial curve]",–
CCOC(=O)c1cc(-c2ccccc2)n(CCCC(=O)Nc2cccc(Cl)c2C)c1C,–,inconclusive: 10.2% [activator] [at 46.1 µM]
